# Source: patent US8715635B2, “Frictionless molecular rotary motors” (Technion Research & Development Foundation Limited, priority 2007, dated 2014)
# At least one compound was matched to its structure with a doubt left.
# Experiment: Isothermal titration calorimetry (ITC) of CB[6] host with dicationic guest molecules
# Assay type: binding
# Settings: in water at 30° C.; for ΔS of binding (entropy term, text): text values in J
# Description: Isothermal titration calorimetry (ITC) was previously employed to study complexation parameters of Compound 1 [63]. Measurement of the host-guest binding thermodynamic profile using ITC provides in a single experiment not only the binding constants (Kb) and binding stoichiometry (n), but also the differences of enthalpy (ΔH) and entropy (ΔS) of binding.
# The experiment was carried out by loading the ITC sample cell with saturated aqueous solution of Compound 1 (1.4 ml) and titrating it with a neutral aqueous solution of the dicationic dihydrochloride salts of various exemplary guest molecules at concentrations that ranged from 3.3 mM to 5.0 mM. The heat generated during each injection was recorded (FIG. 1) and the thermodynamic parameters were acquired by non-linear least squares fit of the calorimetric titration data to a one-site binding model (Table 2).
# A saturated solution of Compound 1 (0.4 mM) in water at pH=7 was prepared by stirring an excess of finely powdered Compound 1 overnight at 30° C. and filtering through a 100-μm micro-filter. Solutions of the guest molecules at concentrations of 3.3-6 mM, were prepared and filtered through a 100-μm micro-filter as well. Titration calorimetry measurements were performed with a VP-ITC calorimeter (Microcal, Northampton, Mass.) as previously described. Repeat determinations indicated errors of 3-10% in n, ΔH, degree, and K values over the most favorable concentration range. A solution of Compound 1 was titrated by 29 injections of 6 μL of guest molecule solutions at 30° C. each, and the titration data were analyzed using Origin2000 software.
SMILES,"ΔS of binding (entropy term, text)",ΔH binding enthalpy (text values in KJ)
"C(C#CCN1CCCCC1)#CCN1CCCCC1.Cl.Cl [Compound 7′, 1,6-Dipiperidinium-2,4-hexadiyne dichloride]",98−39,
"C(C#CCN1CCCC1)#CCN1CCCC1.Cl.Cl [Compound 6′, 1,6-Dipyrrolidinium-2,4-hexadiyne dichloride]",98−39,
"Cl.Cl.NCC#CC#CCN [Compound 4′, Hexa-2,4-diyne-1,6-diammonium dihydrochloride]",98−39,−0.2.91 KJ/mol
